Data from US10226509B2, “Lymphangiogenesis inhibitors for cancer and for graft survival” (TUFTS UNIVERSITY, priority 2014, dated 2019).
For at least one compound, name, drawing or mass did not settle the structure.

Tested on: Gal-8-induced LEC sprouting
Test: LEC sprouting assay: Gal-8-induced sprouting with inhibitors or knockdown
Format: cell-based, human
Settings: Gal-8 0.75 μM, 24 h; TDG 20 mM; LY294002 20 μM; U0126 20 μM; PD0325901 1 μM; Avastin 10 μg/ml; Obtustatin 4 μM; antibodies 20 μg/ml; siRNA-transfected LECs
Description: LEC spheroids were generated by seeding primary LECs at passage 4 or 5 in each well of 384-well hanging-drop plates (3D Biomatrix) in complete EGM-2 MV medium containing 0.25% methyl cellulose according to the manufacturer's instructions (750 cells/well). After 18 hours, LEC spheroids were collected, resuspended in serum-free EBM-2 basal medium, and mixed with collagen solution (PureCol collagen, Advanced BioMatrix, 2.2 mg/ml in M199 medium, pH adjusted to 7.4 with NaHCO3 and NaOH). Aliquots of the LEC spheroid/collagen mixture (250 μl/well of 48-well plate) were incubated in the presence or absence of various test agents for 24 hr. At the end of the incubation period, spheroids were stained with Calcein AM (Invitrogen, 1 μg/mL, 37° C., and 30 min). Fluorescent images were acquired using the EVOS FL cell imaging system, pixels were inverted for better visualization and cumulative length of each sprout was calculated. Results were expressed as fold change compared to corresponding controls. […]
To determine the role of these pathways on Gal-8-induced lymphangiogenesis, LEC spheroids were stimulated with Gal-8 (0.75 μM) in the presence or absence of PI3K inhibitor (LY294002, 20 μM) and two different MEK inhibitors (U0126, 20 μM; PD0325901, 1 μM). After overnight treatment with Gal-8, accumulated sprout lengths were quantified.

SMILES: O=c1cc(N2CCOCC2)oc2c(-c3ccccc3)cccc12 [LY294002]
- effect on Gal-8-induced LEC sprouting (in words): markedly inhibited
